Data: article PMC4057933
No constants are given. Whether binding was seen depends on the method and setting. In cells and extracts the contact can be indirect. Some binding calls cover weakened binding; strength is not graded here. For part of these data: Tags and fused reporters may be left off the sequences shown.

The chains behind the UniProt entries cited, without tags or fusion partners.
UniProt P12520: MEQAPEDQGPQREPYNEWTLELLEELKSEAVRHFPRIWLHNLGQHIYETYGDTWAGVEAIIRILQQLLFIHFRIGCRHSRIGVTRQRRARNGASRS

T1: Myc-TAK1 (transforming growth factor-β-activated kinase 1) (UniProt O43318)
T1 sequence: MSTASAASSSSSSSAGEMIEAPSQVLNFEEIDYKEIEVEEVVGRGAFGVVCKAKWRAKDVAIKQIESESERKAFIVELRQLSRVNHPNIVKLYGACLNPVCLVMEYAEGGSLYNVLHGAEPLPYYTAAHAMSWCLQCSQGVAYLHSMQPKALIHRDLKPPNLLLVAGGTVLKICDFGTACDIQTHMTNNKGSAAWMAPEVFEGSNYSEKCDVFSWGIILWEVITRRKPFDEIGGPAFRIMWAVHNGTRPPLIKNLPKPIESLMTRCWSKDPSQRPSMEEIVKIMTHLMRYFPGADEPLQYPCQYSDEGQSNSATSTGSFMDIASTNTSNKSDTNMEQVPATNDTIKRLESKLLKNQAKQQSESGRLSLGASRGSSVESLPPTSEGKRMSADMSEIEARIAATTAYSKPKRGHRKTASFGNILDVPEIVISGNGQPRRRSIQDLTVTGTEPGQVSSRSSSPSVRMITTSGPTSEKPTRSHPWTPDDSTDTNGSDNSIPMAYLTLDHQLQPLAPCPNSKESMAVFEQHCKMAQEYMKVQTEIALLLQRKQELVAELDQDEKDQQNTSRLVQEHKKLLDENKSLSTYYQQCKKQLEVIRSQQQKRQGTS

T2: endogenous TAK1 (transforming growth factor-β-activated kinase 1) (human (endogenous in HEK293T)) (UniProt O43318)
T2 sequence: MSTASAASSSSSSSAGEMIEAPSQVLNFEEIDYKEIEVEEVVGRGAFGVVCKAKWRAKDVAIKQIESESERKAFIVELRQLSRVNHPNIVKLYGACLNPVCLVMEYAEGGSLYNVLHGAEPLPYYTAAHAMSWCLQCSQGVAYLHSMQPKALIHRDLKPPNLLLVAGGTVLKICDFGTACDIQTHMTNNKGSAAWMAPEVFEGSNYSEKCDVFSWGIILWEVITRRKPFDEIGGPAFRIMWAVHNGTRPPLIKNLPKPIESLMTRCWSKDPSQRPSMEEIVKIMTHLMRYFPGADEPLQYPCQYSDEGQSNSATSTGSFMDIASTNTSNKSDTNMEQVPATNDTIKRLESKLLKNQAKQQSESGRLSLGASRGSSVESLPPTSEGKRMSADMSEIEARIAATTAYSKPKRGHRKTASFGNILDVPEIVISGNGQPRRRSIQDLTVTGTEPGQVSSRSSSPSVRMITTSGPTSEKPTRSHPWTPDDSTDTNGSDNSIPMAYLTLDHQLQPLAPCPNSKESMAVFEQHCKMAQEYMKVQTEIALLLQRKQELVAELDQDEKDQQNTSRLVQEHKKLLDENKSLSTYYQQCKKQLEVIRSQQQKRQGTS


Legend:
Assay in all cases: co-IP
[1] = target: T1, Myc-TAK1 (transforming growth factor-β-activated kinase 1)
[2] = target: T2, endogenous TAK1 (transforming growth factor-β-activated kinase 1) (human (endogenous in HEK293T))
[3] = target: Flag-Vpr (HIV-1 viral protein R, from pNL4-3) (HIV-1 (NL4-3 strain)) (UniProt P12520)

Molecule | binding [1] | binding [2] | binding [3]
Flag-Vpr (HIV-1 viral protein R, from pNL4-3) (from UniProt P12520 1-96) | binds | binds | 
endogenous TAK1 (transforming growth factor-β-activated kinase 1) (enzyme, UniProt O43318 1-606) MSTASAASSSSSSSAGEMIEAPSQVLNFEEIDYKEIEVEEVVGRGAFGVVCKAKWRAKDVAIKQIESESERKAFIVELRQLSRVNHPNIVKLYGACLNPVCLVMEYAEGGSLYNVLHGAEPLPYYTAAHAMSWCLQCSQGVAYLHSMQPKALIHRDLKPPNLLLVAGGTVLKICDFGTACDIQTHMTNNKGSAAWMAPEVFEGSNYSEKCDVFSWGIILWEVITRRKPFDEIGGPAFRIMWAVHNGTRPPLIKNLPKPIESLMTRCWSKDPSQRPSMEEIVKIMTHLMRYFPGADEPLQYPCQYSDEGQSNSATSTGSFMDIASTNTSNKSDTNMEQVPATNDTIKRLESKLLKNQAKQQSESGRLSLGASRGSSVESLPPTSEGKRMSADMSEIEARIAATTAYSKPKRGHRKTASFGNILDVPEIVISGNGQPRRRSIQDLTVTGTEPGQVSSRSSSPSVRMITTSGPTSEKPTRSHPWTPDDSTDTNGSDNSIPMAYLTLDHQLQPLAPCPNSKESMAVFEQHCKMAQEYMKVQTEIALLLQRKQELVAELDQDEKDQQNTSRLVQEHKKLLDENKSLSTYYQQCKKQLEVIRSQQQKRQGTS |  |  | binds
endogenous TAB3 (TAK1 binding protein 3) (protein, UniProt Q8N5C8 1-712) MAQSSPQLDIQVLHDLRQRFPEIPEGVVSQCMLQNNNNLEACCRALSQESSKYLYMEYHSPDDNRMNRNRLLHINLGIHSPSSYHPGDGAQLNGGRTLVHSSSDGHIDPQHAAGKQLICLVQEPHSAPAVVAATPNYNPFFMNEQNRSAATPPSQPPQQPSSMQTGMNPSAMQGPSPPPPPPSYMHIPRYSTNPITVTVSQNLPSGQTVPRALQILPQIPSNLYGSPGSIYIRQTSQSSSGRQTPQSTPWQSSPQGPVPHYSQRPLPVYPHQQNYQPSQYSPKQQQIPQSAYHSPPPSQCPSPFSSPQHQVQPSQLGHIFMPPSPSTTPPHPYQQGPPSYQKQGSHSVAYLPYTASSLSKGSMKKIEITVEPSQRPGTAINRSPSPISNQPSPRNQHSLYTATTPPSSSPSRGISSQPKPPFSVNPVYITYTQPTGPSCTPSPSPRVIPNPTTVFKITVGRATTENLLNLVDQEERSAAPEPIQPISVIPGSGGEKGSHKYQRSSSSGSDDYAYTQALLLHQRARMERLAKQLKLEKEELERLKSEVNGMEHDLMQRRLRRVSCTTAIPTPEEMTRLRSMNRQLQINVDCTLKEVDLLQSRGNFDPKAMNNFYDNIEPGPVVPPKPSKKDSSDPCTIERKARRISVTSKVQADIHDTQAAAADEHRTGSTQSPRTQPRDEDYEGAPWNCDSCTFLNHPALNRCEQCEMPRYT |  | binds | 
endogenous TAB1 (TAK1 binding protein 1) (protein, UniProt Q15750 1-504) MAAQRRSLLQSEQQPSWTDDLPLCHLSGVGSASNRSYSADGKGTESHPPEDSWLKFRSENNCFLYGVFNGYDGNRVTNFVAQRLSAELLLGQLNAEHAEADVRRVLLQAFDVVERSFLESIDDALAEKASLQSQLPEGVPQHQLPPQYQKILERLKTLEREISGGAMAVVAVLLNNKLYVANVGTNRALLCKSTVDGLQVTQLNVDHTTENEDELFRLSQLGLDAGKIKQVGIICGQESTRRIGDYKVKYGYTDIDLLSAAKSKPIIAEPEIHGAQPLDGVTGFLVLMSEGLYKALEAAHGPGQANQEIAAMIDTEFAKQTSLDAVAQAVVDRVKRIHSDTFASGGERARFCPRHEDMTLLVRNFGYPLGEMSQPTPSPAPAAGGRVYPVSVPYSSAQSTSKTSVTLSLVMPSQGQMVNGAHSASTLDEATPTLTNQSPTLTLQSTNTHTQSSSSSSDGGLFRSRPAHSLPPGEDGRVEPYVDFAEFYRLWSVDHGEQSVVTAP |  | binds | 
endogenous TAB2 (TAK1 binding protein 2) (protein, UniProt Q9NYJ8 1-693) MAQGSHQIDFQVLHDLRQKFPEVPEVVVSRCMLQNNNNLDACCAVLSQESTRYLYGEGDLNFSDDSGISGLRNHMTSLNLDLQSQNIYHHGREGSRMNGSRTLTHSISDGQLQGGQSNSELFQQEPQTAPAQVPQGFNVFGMSSSSGASNSAPHLGFHLGSKGTSSLSQQTPRFNPIMVTLAPNIQTGRNTPTSLHIHGVPPPVLNSPQGNSIYIRPYITTPGGTTRQTQQHSGWVSQFNPMNPQQVYQPSQPGPWTTCPASNPLSHTSSQQPNQQGHQTSHVYMPISSPTTSQPPTIHSSGSSQSSAHSQYNIQNISTGPRKNQIEIKLEPPQRNNSSKLRSSGPRTSSTSSSVNSQTLNRNQPTVYIAASPPNTDELMSRSQPKVYISANAATGDEQVMRNQPTLFISTNSGASAASRNMSGQVSMGPAFIHHHPPKSRAIGNNSATSPRVVVTQPNTKYTFKITVSPNKPPAVSPGVVSPTFELTNLLNHPDHYVETENIQHLTDPTLAHVDRISETRKLSMGSDDAAYTQALLVHQKARMERLQRELEIQKKKLDKLKSEVNEMENNLTRRRLKRSNSISQIPSLEEMQQLRSCNRQLQIDIDCLTKEIDLFQARGPHFNPSAIHNFYDNIGFVGPVPPKPKDQRSIIKTPKTQDTEDDEGAQWNCTACTFLNHPALIRCEQCEMPRHF |  | binds | 
